These are yes or no findings as the source states them, for the method shown. In cells and extracts the contact can be indirect. Some entries that bind do so weakly or less than the wild type.

In the experiment the target is Epidermal growth factor receptor (EGFR) (human (endogenous in HCT116)) (UniProt P00533). The experiment is described as follows: co-IP; total protein of HCT116 cells; 1 ug TNNT2 antibody or EGFR antibody (IgG as negative control) overnight at 4 C, protein A agarose beads, washed 3 times, western blot. (In general: In western blotting, separated proteins are transferred to a membrane and probed.)

Consider “Cardiac troponin T (TNNT2) (from UniProt P45379 1-298)”, for which the binding entry is given as “binds”.
